Measurements published in paper PMC10394018.
No constants are given. Whether binding was seen depends on the method and setting. Binding seen in cells or lysates may run through a third protein. Some binding calls cover weakened binding; strength is not graded here. For some assays here: Where a sequence is shown, tags or fusion partners need not be part of it.

How the values were obtained:
Flag-tagged Bcl6 = Flag-tagged Bcl6 (UniProt P41183); assay: co-IP; HEK293T cells co-transfected with Flag-tagged Bcl6 and HA-tagged Trim37 (full length or mutants), 24 h; RIPA lysis buffer (50 mM Tris base, 150 mM NaCl, 1% NP-40, 1 mM EDTA, 0.25% sodium deoxycholate, 0.1% SDS); anti-Flag agarose gel overnight at 4 °C; immunoblot with anti-HA and anti-Flag
[1] = biological target: Bcl6 with Twin-Strep-Tag at the C-terminus (Bcl6^TST knock-in mice) (mouse (endogenous in CD4+ T cells of knock-in mice)) (UniProt P41183); assay: pull-down; WT and Bcl6^TST CD4+ T cells cultured under TFH-like conditions, stimulated with anti-CD3 and anti-ICOS for 4 h; affinity enrichment of the Twin-Strep-Tag with Strep-tactin; immunoblot with anti-Bcl6, anti-Trim37 and anti-actin

B1: HA-tagged full-length Trim37 (protein, UniProt Q6PCX9 1-961)
chain: MDEQSVESIAEVFRCFICMEKLRDARLCPHCSKLCCFSCIRRWLTEQRAQCPHCRAPLQLRELVNCRWAEEVTQQLDTLQLCSLTKHEENEKDKCENHHEKLSVFCWTCKKCICHQCALWGGMHGGHTFKPLAEIYEQHVTKVNEEVAKLRRRLMELISLVQEVERNVEAVRNAKDERVREIRNAVEMMIARLDTQLKNKLITLMGQKTSLTQETELLESLLQEVEHQLRSCSKSELISKSSEILMMFQQVHRKPMASFVTTPVPPDFTSELVPSYDSATFVLENFSTLRQRADPVYSPPLQVSGLCWRLKVYPDGNGVVRGYYLSVFLELSAGLPETSKYEYRVEMVHQSCNDPTKNIIREFASDFEVGECWGYNRFFRLDLLANEGYLNRQNDTVILRFQVRSPTFFQKCRDQHWYITQLEAAQTGYIQQINNLKERLTIELSRTQKSRDLSPPDNHLSPQNDDSPETRTKKAGSCSDMLLEGGPTCASVRETKEDEDEEEKIQNEDYHHELSDGDLDLDLVGEDEVNHLDGSSSSASSTATSNTEENDIDEETMSGENDVEYNSMELEEGELMEDAAAAGPPGSSHSYVGASSRMSRRTHLCSAATSSLLDIDPLILIHLLDLKDRSSMENLWGLQPRPSASLLQPTASYSRKDKDQRKQQAMWRVPSDLKMLKRLKTQMAEVRCMKTDVKTTLSDIKGSSVASTDMQTNLFCADQAALTTCGPENSGRLQDLGMELLAKSSVAGCYIRNPTNKKNSPKSARAIAGSLSLRRAVDSGENSRSKGDCQVLAEGSSGSSQSGSRHSSPRALTHGIIGDLLPKSEDRQCKALDSDAVVVAVFNGLPTVEKRRKMVTLGTNAKGGRLEGMQMADLESHSEAGEVQPTLPEGASAAPEEGMSSDSDIECDTENEEQEEHTSMGAFNDPFLAQPPDEDSHSSFPDGEQIDPENLHFNPDEGGGR
binding (Flag-tagged Bcl6): binds

B2: Trim37 (endogenous, mouse CD4+ T cells) (protein, UniProt Q6PCX9 1-961)
chain: B1 chain
binding [1]: binds
